# Data from publication PMC12186120.
# Chains of the proteins cited; added tags and fusions are not shown.
# UniProt P61224: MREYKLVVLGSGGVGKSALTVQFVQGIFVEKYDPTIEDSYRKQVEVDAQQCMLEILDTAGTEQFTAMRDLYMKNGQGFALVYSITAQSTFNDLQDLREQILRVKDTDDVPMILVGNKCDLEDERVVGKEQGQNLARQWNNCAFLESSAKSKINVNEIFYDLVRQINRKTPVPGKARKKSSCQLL
# These are yes or no findings as the source states them, for the method shown. In cells and extracts the contact can be indirect. Some results given as binding are weak or reduced against the parent protein; the word gives no strength. Where a sequence is shown, tags or fusion partners need not be part of it.
# B1: FLAG-Rab40b-WT (protein, UniProt Q12829 1-278)
# chain: MSALGSPVRAYDFLLKFLLVGDSDVGKGEILASLQDGAAESPYGHPAGIDYKTTTILLDGRRVKLQLWDTSGQGRFCTIFRSYSRGAQGVILVYDIANRWSFDGIDRWIKEIDEHAPGVPKILVGNRLHLAFKRQVPTEQAQAYAERLGVTFFEVSPLCNFNITESFTELARIVLLRHGMDRLWRPSKVLSLQDLCCRAVVSCTPVHLVDKLPLPIALRSHLKSFSMANGLNARMMHGGSYSLTTSSTHKRSSLRKVKLVRPPQSPPKNCTRNSCKIS
# Key:
# GST-RalGDS = biological target: T1, GST-RalGDS (UniProt Q12967); assay: pull-down; 20 ug GST-RalGDS added to lysate of control or Rab40-TKO MDA-MB-231 cells stably expressing GFP-Rap1b; 60 min room temperature, then glutathione beads 30 min; washes 20 mM Hepes pH 7.4, 300 mM NaCl, 0.1% Triton X-100; western blot; only the target purified
# T1 sequence: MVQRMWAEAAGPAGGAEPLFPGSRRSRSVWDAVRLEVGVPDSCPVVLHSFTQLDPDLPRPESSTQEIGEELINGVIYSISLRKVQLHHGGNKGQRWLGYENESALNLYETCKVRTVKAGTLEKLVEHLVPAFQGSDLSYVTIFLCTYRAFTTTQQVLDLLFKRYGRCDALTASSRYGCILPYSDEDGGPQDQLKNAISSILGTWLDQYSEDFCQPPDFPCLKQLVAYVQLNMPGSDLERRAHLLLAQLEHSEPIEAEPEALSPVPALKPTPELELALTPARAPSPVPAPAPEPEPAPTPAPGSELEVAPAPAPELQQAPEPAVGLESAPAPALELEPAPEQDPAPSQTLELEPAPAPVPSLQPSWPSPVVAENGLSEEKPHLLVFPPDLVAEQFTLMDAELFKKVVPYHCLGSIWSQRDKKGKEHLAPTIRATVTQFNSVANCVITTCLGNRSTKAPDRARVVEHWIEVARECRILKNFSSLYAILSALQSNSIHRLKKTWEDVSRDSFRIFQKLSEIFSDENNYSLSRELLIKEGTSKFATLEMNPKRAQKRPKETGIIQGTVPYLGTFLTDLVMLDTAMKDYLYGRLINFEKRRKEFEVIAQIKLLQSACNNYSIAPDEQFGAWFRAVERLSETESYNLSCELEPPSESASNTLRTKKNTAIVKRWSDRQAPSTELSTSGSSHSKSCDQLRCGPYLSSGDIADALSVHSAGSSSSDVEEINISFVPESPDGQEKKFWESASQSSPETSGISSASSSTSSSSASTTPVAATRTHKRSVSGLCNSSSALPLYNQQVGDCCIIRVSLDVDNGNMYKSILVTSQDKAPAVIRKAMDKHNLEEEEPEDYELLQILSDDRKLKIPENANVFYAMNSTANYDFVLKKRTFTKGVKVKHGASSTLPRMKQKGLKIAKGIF
# GST-Rap1b = GST-Rap1b (UniProt P61224); assay: pull-down; 10 ug GST-Rap1b added to MDA-MB-231 lysate (400 uL at 3 mg/mL) locked with GppCp or GDP (5 mM EDTA, 5 mM nucleotide, 15 mM MgCl2); 1 h room temperature, then GST beads 30 min; washes 20 mM Hepes pH 7.4, 300 mM NaCl, 0.1% Triton X-100; anti-FLAG western blot; only the target purified
Molecule,binding (GST-RalGDS),binding (GST-Rap1b)
GFP-Rap1b (from UniProt P61224 1-184),binds,–
B1,–,binds
